Results are given in words; binding and its absence hold for the method and conditions named. Some entries that bind do so weakly or less than the wild type.
Biological target: MCHR1 in membrane fractions of NHDF (human (endogenous in NHDF)) (UniProt Q99705)
Assay: far-Western, overlay or dot blot; western ligand blot: NHDF membrane fractions (PDGF-BB 40 ng/ml or vehicle treated) electrophoresed under non-reducing conditions, transferred to nitrocellulose, incubated 1 hour with biotinylated PDGF-BB, detected with streptavidin-HRP; only the binder purified

Protein sequences, listed by entry. Tags and fused reporters are not part of them. Residues count along the entry.
UniProt Q99705: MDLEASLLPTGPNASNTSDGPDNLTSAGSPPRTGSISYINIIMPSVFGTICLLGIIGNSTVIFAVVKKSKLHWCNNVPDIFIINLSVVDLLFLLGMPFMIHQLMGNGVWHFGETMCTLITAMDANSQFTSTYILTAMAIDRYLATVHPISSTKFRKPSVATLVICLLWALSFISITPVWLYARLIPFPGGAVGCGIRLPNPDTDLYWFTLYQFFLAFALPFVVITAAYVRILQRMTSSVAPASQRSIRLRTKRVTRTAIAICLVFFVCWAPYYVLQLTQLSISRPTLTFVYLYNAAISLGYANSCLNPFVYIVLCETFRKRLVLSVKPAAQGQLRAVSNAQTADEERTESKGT
UniProt P01127, residues 82-190: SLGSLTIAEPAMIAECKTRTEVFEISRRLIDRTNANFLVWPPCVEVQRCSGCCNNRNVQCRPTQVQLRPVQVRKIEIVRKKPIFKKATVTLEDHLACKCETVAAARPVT

“biotinylated PDGF-BB (from UniProt P01127 82-190) (ligand)” was tested, and the binding was “binds”.

Source: paper PMC8667318
